## Results of single-concentration screens

The chains behind the UniProt entries cited, without tags or fusion partners. Residues count along the entry.
UniProt Q4DA54, 1-478: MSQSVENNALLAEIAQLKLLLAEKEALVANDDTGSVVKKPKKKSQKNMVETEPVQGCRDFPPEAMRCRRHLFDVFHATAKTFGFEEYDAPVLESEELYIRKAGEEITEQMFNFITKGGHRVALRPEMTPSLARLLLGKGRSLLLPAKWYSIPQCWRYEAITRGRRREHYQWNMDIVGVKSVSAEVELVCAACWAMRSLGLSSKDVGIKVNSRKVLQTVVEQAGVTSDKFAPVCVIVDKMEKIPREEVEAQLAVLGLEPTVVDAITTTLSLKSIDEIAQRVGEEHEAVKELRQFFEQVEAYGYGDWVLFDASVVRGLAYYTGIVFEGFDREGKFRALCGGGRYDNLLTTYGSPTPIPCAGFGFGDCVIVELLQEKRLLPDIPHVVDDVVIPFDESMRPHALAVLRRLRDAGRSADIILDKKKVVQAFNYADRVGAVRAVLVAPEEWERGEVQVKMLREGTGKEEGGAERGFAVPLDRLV

Source: ChEMBL document CHEMBL3988442, “University of Dundee, Small-Polar-MMV Screening Library” (2021).

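Enzyme assay of histidyl-tRNA synthetase; the read-out is not stated. Target: Histidine-tRNA ligase, Trypanosoma cruzi CL Brener (UniProt Q4DA54). Tested at 30 µM. The record gives no direction; compounds that gave an IC50 in retests scored well above the rest, so higher reads as stronger inhibition. Size under these conditions: about 69,000 compounds, about 31 of them at 50% or above in at least one test.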

Each number is a percent effect as filed. The record does not define 0% and 100%; most values in the screen are far below 50% and negative numbers occur (in some assays of this library far below -100). This is an unselected part of the compounds tested.

structure	Percent Effect
c1ccc(N2CCC(NCCc3ccc(-n4cccn4)cc3)CC2)nc1	3.727
CCn1nc(C)c2nc(C)nc(N(C)Cc3ccco3)c21	7.453
CN1CCC(CNC(=O)c2ccc3cccc(Cl)c3n2)C1 (configuration not stated)	10.27
O=C(CCN1CCCCO1)NCCSc1cnn[nH]1	4.712
Cc1cnn(C2CCCN(C(=O)c3ccn(C)c(=O)c3)C2)c1 (configuration not stated)	-2.642
CC(C)(C)OC(=O)N1CCC(NC2CC2)CC1	3.448
CNC(=O)CC1COCCN1C(=O)C1(c2ccc(Cl)cc2)CCC1 (configuration not stated)	6.341
O=C(CN1CCOC(Cn2cccn2)C1)NCCc1ccc(F)cc1 (configuration not stated)	2.682
O=C(C1CCOC1)N1CCN(Cc2ccc3c(c2)CCO3)CC1 (configuration not stated)	4.046
Cc1ccc(CNC(=O)Nc2cc(C(F)(F)F)c[nH]c2=O)cn1	2.439
COc1ccc(C2CCCN2Cc2ccc(S(=O)(=O)N(C)C)o2)cc1 (configuration not stated)	9.827
CN(C)c1ncccc1CNC(=O)N1CCCC1CN1CCCC1 (configuration not stated)	3.458
N#Cc1ccc(OCCN2CCc3cncnc3C2)cc1	12.1
CC/C=C(/C)C(=O)NCc1ccc(OC)nc1	2.521
CCc1noc(C(C)N2CCN(CCc3ccncc3)CC2)n1 (configuration not stated)	0
CC(C)C(C(=O)N1CCCN(c2nccs2)CC1)n1cncn1 (configuration not stated)	4.094
O=C(O)CSc1nnc(-c2ccn[nH]2)n1-c1ccccc1C(F)(F)F	9.091
FC1(F)CCN(c2ccccc2)CC12CCN(c1ncccn1)C2 (configuration not stated)	6.952
COc1cc(CNCc2ccnc(N3CCCC3)c2)cc(OC)c1	13.2
COc1ccc(CNC(=O)C(NC(=O)Cc2ccccc2)C(C)C)cn1 (configuration not stated)	9.901
CC(=O)N1CCc2nc3sc(C(N)=O)c(N)c3c(C(F)(F)F)c2C1	1.463
O=C(NCc1ccc(Br)cc1)C1(O)CCSCC1	6.077
CC(O)CN1CC2(CCC1=O)CCN(Cc1cc(F)ccc1Cl)CC2 (configuration not stated)	5.587
Cc1ccc(N2CCCC(NCc3nnc4n3CCCC4)C2=O)cc1 (configuration not stated)	2.941
CC(O)CN1CCN(C(=O)c2cccn2Cc2ccncc2)CC1 (configuration not stated)	-3.008
CNC(=O)c1cc2c(nc1N(C)C)CCN(c1ncccn1)CC2	-17.59
NC(=O)CN1CCCC(C(=O)N2CCC(O)(Cc3ccccc3)CC2)C1 (configuration not stated)	12.65
Cc1ncccc1C(=O)NC1(c2cccc(F)c2)CCOCC1	5.357
O=C(COc1ccc2c(c1)CCC2)N1CCCC1c1ccc[nH]1 (configuration not stated)	11.06
CC(C)c1cc(C(=O)N2CCN(CC3CC3)[C@@H]3CS(=O)(=O)C[C@@H]32)no1	6.122
CCOc1ccc(CSC(C)c2nc(C)no2)nc1 (configuration not stated)	3.879
Cc1noc(C)c1C(=O)N1CCC2(CC(N(C)c3ccncn3)C2)C1 (configuration not stated)	6.593
COc1ccc(NC(=O)c2ccc[nH]2)c(N2CCN(C(C)=O)CC2)n1	0.5348
Cc1ccc(NC2CCN(C(=O)c3cncnc3C)CC2)nn1	4.706
O=C(Cc1ccc(Cl)cc1)N[C@@H]1CCC[C@@H](O)[C@@H]1O	1.695
COc1cccc(CN2CCC(CO)(Cc3ccc(Cl)cc3)CC2)c1O	13.04
Cc1noc(C)c1C(=O)NCCc1cccs1	-1.01
Cc1ccccc1N1CCCN(C(=O)CN2C(=O)OC[C@@H]2C(C)C)CC1	-7.729
Cc1noc(C)c1-c1cnc(CC2CCN(C(=O)c3cc[nH]n3)C2)cn1 (configuration not stated)	1.622
Cc1ccc(CN2CC[C@H]3OCC[C@@H](C(=O)NC4CC4)[C@@H]3C2)o1	3.867
CC(=O)Nc1nc(CN2CCCC2c2cnn(C)c2)cs1 (configuration not stated)	1.504
O=C(CCc1ccccc1Br)NS(=O)(=O)c1ccc2c(c1)OCCO2	-3.38
CC(C)c1nccn1C1CCCN(C(=O)CCCc2ccccn2)C1 (configuration not stated)	1.734
Cc1ccc(CC(=O)NCC(O)c2cccc(C(F)(F)F)c2)cn1 (configuration not stated)	8.28
Cc1ccccc1C1CCN(C(=O)CCNC(=O)C(C)(C)C)C1 (configuration not stated)	5.946
COC(=O)[C@@H]1CN(C(=O)NC(C)C)CCN1S(=O)(=O)c1ccccc1	11.88
CCS(=O)(=O)NCCN1CCc2ccc(F)cc2C1C (configuration not stated)	5.882
CC(C)[C@H]1COC(=O)N1Cc1nncn1C(C)C	8.427
CSC(C)(C)CNC(=O)NC1CCSCC1	2.905
NC(=O)CS(=O)(=O)Cc1csc(-c2ccc(F)cc2)n1	7.182
Cc1sc2ccccc2c1S(=O)(=O)NCCNC(=O)C(C)C	3.704
CCNC(=O)N1C[C@@H]2OCC(=O)N(CC3CC3)[C@@H]2C1	2.488
c1cnc(N2CCO[C@H]3[C@H](OCCN4CCOCC4)CC[C@@H]32)nc1	9.677
Cc1ccc2oc(C(=O)N3CCC(C(=O)N4CCCC4)CC3)cc2n1	2.29
Cc1nc(C2CCNCC2)cc(N2CCOc3ccccc3C2)n1	-7.143
CCC[C@H]1CN(c2nc(CO)cs2)C[C@@H]1NC(=O)C1(COC)CC1	30.3
CN1CCC(NC(=O)Nc2ccc(F)c(-n3cccc3)c2)C1=O (configuration not stated)	9.677
FC1(F)CCNCC12CCN(c1cccnc1)C2 (configuration not stated)	6.952
CN1CCNC(Cc2ccc(-c3ccccc3)cc2)C1=O (configuration not stated)	5.224
Cc1cc(NCC(C)C)ccc1C(=O)N(C)C	6.122
Cc1nc(CC(=O)NS(=O)(=O)c2cccc3cnccc23)cs1	3.067
CN1CCN(Cc2noc(-c3cc(-c4ccccc4F)n[nH]3)n2)CC1	1.538
CS(=O)(=O)Cc1ccc(Cl)c(NCc2noc(C3CC3)n2)c1	2.703
O=c1[nH]cnc2[nH]c(N3CCOCC3)nc12	-3.093
COCC(=O)N1C[C@@H](OCc2ccncc2)[C@@H]2OCCC[C@@H]21	2.439
Fc1cnc(N2CCC3(CC2)CC(OCc2cccnc2)CO3)nc1 (configuration not stated)	2.151
CC(=O)N(Cc1noc(C)n1)C1CCN(Cc2ncc(C(C)C)o2)C1 (configuration not stated)	2.624
O=C1COC2(COCCN(Cc3ccsc3)C2)CN1c1ccoc1 (configuration not stated)	7.438
CCN(CC)c1ccc(NC(=O)NCC2(C(N)=O)CCOCC2)cn1	8.824
CSCC(=O)N[C@H]1CN(CC2CCOCC2)C[C@@H]1c1ccccc1	-1.205
Cc1nc(CN2CCC3(CCN(c4cnn(C)c4)C3=O)C2)cs1 (configuration not stated)	4.762
CCS(=O)(=O)N1C[C@@H](OCc2ccccn2)[C@@H]2OCCC[C@@H]21	4.132
CCn1nc(CC(C)C)cc1C(=O)N1CC(N2CCCCC2C)C1 (configuration not stated)	1.087
Cc1cc(C(=O)NCCN2CCCCC2)nn1C(C)(C)C	-25.37
Cc1ccc(-c2nn3c(nc2=O)-c2ccccc2NC3C(=O)O)cc1C (configuration not stated)	-0.5525
O=C(NCCN1CCNCC1)c1nc2ccccc2c(=O)[nH]1	2.732
COCCCN1CCN(CC2CCCO2)CC1 (configuration not stated)	6.667
Cc1c(C(=O)NCc2ccnc(OCC(F)(F)F)c2)cnn1C	3.55
CCCS(=O)(=O)NC(=O)c1ccc(Br)o1	4.712
CN(Cc1cnn(C)c1)Cc1nc(Cc2cccc(Cl)c2)no1	1.97
CC(=O)N1CC(C)CN(C(=O)c2cscn2)c2ccccc21 (configuration not stated)	8.081
Cc1ccc(-c2nnc(CNCCn3cc(C)cn3)o2)cc1	2.662
Cc1cc(NC(=O)N(Cc2ccc(C#N)cc2)C(C)C)no1	10.92
CCc1cc(NCCN2CCNC2=O)n2nc(C)c(C)c2n1	7.182
COC(=O)CCC(=O)N1CCc2nc(C(=O)N(C)C)sc2CC1	1.266
Cn1c(CC2CCS(=O)(=O)C2)nnc1SCCOc1cccc(Cl)c1 (configuration not stated)	-0.8475
CCOC(=O)c1nc(CN2CCN(C(C)C(=O)NC3CC3)CC2)cs1 (configuration not stated)	11.6
CCOCC1CN(CCN2CCCCC2)Cc2cnn(C)c21 (configuration not stated)	8.867
Cc1[nH]c2ccccc2c1CCNc1ncnc2c1CCNCC2	10.34

The first 6 entries again:

With c1ccc(N2CCC(NCCc3ccc(-n4cccn4)cc3)CC2)nc1 the screen gave 3.727%.
With CCn1nc(C)c2nc(C)nc(N(C)Cc3ccco3)c21 the screen gave 7.453%.
With CN1CCC(CNC(=O)c2ccc3cccc(Cl)c3n2)C1 (configuration not stated) the screen gave 10.27%.
With O=C(CCN1CCCCO1)NCCSc1cnn[nH]1 the screen gave 4.712%.
With Cc1cnn(C2CCCN(C(=O)c3ccn(C)c(=O)c3)C2)c1 (configuration not stated) the screen gave -2.642%.
With CC(C)(C)OC(=O)N1CCC(NC2CC2)CC1 the screen gave 3.448%.